Results published in article doi:10.1101/2025.01.23.634542, “Convergent Agonist and Heat Activation of Nociceptor TRPM3” (bioRxiv, 2025).

Tested on: rTRPM3
Assay: Cryo-EM subunit and tetramer conformational analysis of ligand-bound rTRPM3
Design: species or system rabbit
Conditions: 18 °C; for Proportion of subunits in the activated conformation: apo 16%

Row | Structure (SMILES) | Proportion of subunits in the activated conformation [%] | Proportion of tetramers with three or four activated subunits (apo 18 °C 2%) [%]
1 | Cc1cc(NC(=O)C(c2ccccc2)N2CCCc3ccccc32)no1 (stereo not drawn) [CIM0216] | 80 | 83
2 | CCC1(c2ccccc2)C(=O)NCNC1=O [primidone] | 30 | –
